Experimental data: PubChem BioAssay AID602196 (INSERM, 2012)
Here is a random part of about 23,000 reagents. 455 of all reagents (2%) were called active. 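Active includes both protection and sensitisation; some change values fall well beyond the stated -50 to +50 range.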 Further read-outs or replicates are left out here. The record does not give: the amount of reagent.

Purpose: 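Genes whose knock-down alters cisplatin killing of lung cancer cells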
Cells: human A549 lung cancer cells
Reagent: siRNA pair against human genes
Time to read-out: 48 h transfection before cisplatin; time from cisplatin to read-out not stated
Conditions: cisplatin at a dose killing half of control-siRNA cells; exact dose and duration not given
Read-out: 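Shift in cisplatin death relative to control siRNA, from -50 (all cells die) to +50 (no cells die); siRNAs harmful on their own scored 0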
Reading the numbers: two-siRNA summed score (-2 to +2): higher = both siRNAs protect from cisplatin killing; -2 means both sensitise
Active means: 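siRNAs harmful alone (LDH or WST-1) get 0; others get +1 for less and -1 for more cisplatin killing; genes are active when the two siRNAs give the same sign, summing to ±2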
Meaning of the calls: active = both siRNAs shift cisplatin killing the same way; inactive = no consistent shift, or siRNA harmful alone

CDK5R2 | two-siRNA summed score (-2 to +2): 1; activity call: inactive
LOC400156 | two-siRNA summed score (-2 to +2): 0; activity call: inactive
LOC440578 | two-siRNA summed score (-2 to +2): 0; activity call: inactive
LCE2B | two-siRNA summed score (-2 to +2): -1; activity call: inactive
LOC390842 | two-siRNA summed score (-2 to +2): 0; activity call: inactive
GET4 | two-siRNA summed score (-2 to +2): 0; activity call: inactive
PWP2 | two-siRNA summed score (-2 to +2): 0; activity call: inactive
APCDD1L | two-siRNA summed score (-2 to +2): -1; activity call: inactive
FAR2 | two-siRNA summed score (-2 to +2): 0; activity call: inactive
DBF4 | two-siRNA summed score (-2 to +2): 0; activity call: inactive
SF3A1 | two-siRNA summed score (-2 to +2): 0; activity call: inactive
LOC388300 | two-siRNA summed score (-2 to +2): 0; activity call: inactive
ZNF420 | two-siRNA summed score (-2 to +2): 0; activity call: inactive
SFN | two-siRNA summed score (-2 to +2): -1; activity call: inactive
LOC442376 | two-siRNA summed score (-2 to +2): 0; activity call: inactive
LOC440472 | two-siRNA summed score (-2 to +2): 0; activity call: inactive
SH3PXD2A | two-siRNA summed score (-2 to +2): 0; activity call: inactive
ASTE1 | two-siRNA summed score (-2 to +2): 0; activity call: inactive
ZNF679 | two-siRNA summed score (-2 to +2): 0; activity call: inactive
TMEM247 | two-siRNA summed score (-2 to +2): 1; activity call: inactive
TNFSF15 | two-siRNA summed score (-2 to +2): -1; activity call: inactive
ABCG2 | two-siRNA summed score (-2 to +2): 0; activity call: inactive
LOC440691 | two-siRNA summed score (-2 to +2): 0; activity call: inactive
SPATA2 | two-siRNA summed score (-2 to +2): 1; activity call: inactive
FLJ14351 | two-siRNA summed score (-2 to +2): 0; activity call: inactive
GOLPH3L | two-siRNA summed score (-2 to +2): 0; activity call: inactive
SLC41A3 | two-siRNA summed score (-2 to +2): 1; activity call: inactive
CIITA | two-siRNA summed score (-2 to +2): 1; activity call: inactive
LINC02003 | two-siRNA summed score (-2 to +2): 0; activity call: inactive
ZKSCAN7 | two-siRNA summed score (-2 to +2): 0; activity call: inactive
MKRN2 | two-siRNA summed score (-2 to +2): 0; activity call: inactive

3 entries from above, set out differently:
{"Target gene": "GOLPH3L", "two-siRNA summed score (-2 to +2)": 0, "activity call": "inactive"}
{"Target gene": "SLC41A3", "two-siRNA summed score (-2 to +2)": 1, "activity call": "inactive"}
{"Target gene": "CIITA", "two-siRNA summed score (-2 to +2)": 1, "activity call": "inactive"}
